Measurements taken from the supplement of paper PMC3334620.
In all, about 33,000 sequences were measured (“E-score (-0.5 to 0.5)”: median about -0.0059, highest 2% from about 0.26 on). The list shows a part of the results.

target: T1, Cin5 (UniProt P40917); test: PBM E-score (8-mer binding enrichment) (E-score (-0.5 to 0.5)); higher = stronger / more preferred TF binding; settings: protein concentration: 100 nM; construct: GST-full length
T1 sequence: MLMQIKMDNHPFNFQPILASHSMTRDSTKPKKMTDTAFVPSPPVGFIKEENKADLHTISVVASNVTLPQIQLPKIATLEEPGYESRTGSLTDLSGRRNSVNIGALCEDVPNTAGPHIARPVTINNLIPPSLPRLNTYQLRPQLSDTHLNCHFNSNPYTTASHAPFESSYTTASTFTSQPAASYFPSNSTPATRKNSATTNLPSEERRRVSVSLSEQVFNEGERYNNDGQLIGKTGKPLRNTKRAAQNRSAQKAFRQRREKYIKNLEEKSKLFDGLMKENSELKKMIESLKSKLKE
How it was run: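 Each ungapped eight-base word and its reverse complement, pooled, received an E-score from the Universal PBM Analysis Suite. Underlying scans, normalised with masliner, recorded fluorescent anti-GST bound to GST-tagged yeast transcription factors. These were applied at about 100-200 nM to universal all-10-mer Agilent arrays double-stranded by primer extension.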

Row | Sequence | PBM E-score
1 | AAGGAATG | 0.0694
2 | CGTACAGA | -0.12
3 | GACGAATA | 0.174
4 | AACGCGCG | 0.276
5 | CTCCGGAC | -0.0821
6 | GACGGTCA | -0.245
7 | GGTCTCGA | -0.0648
8 | ACCGAGGC | -0.231
9 | GGCAGCGA | -0.277
10 | GGGATACA | 0.0204
11 | ATGGAAAT | 0.151
12 | CCCCTAGA | -0.0639
13 | AGAAATCA | 0.138
14 | CCACACAC | 0.0084
15 | CGACGGAA | 0.152
16 | GCGAGGAC | -0.224
17 | GTCACAAC | -0.0318
18 | AGTTCATA | 0.156
19 | CTTGCTTC | -0.073
20 | AAGCACCG | -0.0883
21 | ATAGGGAT | 0.13
22 | CACTGGAC | 0.0102
23 | GCGCCTGA | 0.117
24 | ACAACAAA | 0.102

Retrieved one by one from above:
Row | Sequence | PBM E-score
24 | ACAACAAA | 0.102
17 | GTCACAAC | -0.0318

(further entries)

Row | Sequence | PBM E-score
25 | CCTCGGCA | -0.159
26 | CTCTGGAA | -0.0651
27 | TCCCGGGA | 0.242
28 | ACTACTTA | 0.1
29 | CCGAGATA | 0.109
30 | CGAGCAAA | -0.0426
31 | AAACCGCG | 0.265
32 | GGCCAGAA | 0.0816
33 | CGCTTCGA | -0.0283
34 | CAGACGAA | 0.286
35 | GACAGATA | 0.178
36 | GTCATTAA | 0.279
37 | CAGCTACG | -0.288
38 | CATGCTTC | 0.0417
39 | CGCGGTCC | -0.0882
40 | AAATGAAC | 0.072
41 | CAACGGCA | -0.106
42 | GGCAGTTA | -0.0543
43 | GATCGCAA | 0.158
44 | GCCACGTA | -0.0483
45 | GGGAAATA | 0.0795
46 | CTATCTGC | -0.0751
47 | CCCGCAGC | -0.133
48 | AACTATGA | 0.173

6 entries from above, set out differently.
Row,Sequence,PBM E-score
24,ACAACAAA,0.102
25,CCTCGGCA,-0.159
26,CTCTGGAA,-0.0651
27,TCCCGGGA,0.242
28,ACTACTTA,0.1
29,CCGAGATA,0.109

Following part

Row | Sequence | PBM E-score
49 | GAACGTCC | -0.00592
50 | TAGAAAAA | 0.0442
51 | ATGGTAAC | 0.217
52 | CCATCGAC | 0.00486
53 | AGGATAAC | 0.0753
54 | ATCGATAC | 0.201
55 | AGGCCATA | -0.0731
56 | ACTTAGTG | -0.0686
57 | AGTGATGG | -0.0654
58 | CACCTGGG | -0.231
59 | AGCCACGA | -0.0686
60 | GTTGGTTA | 0.108
61 | AGTCTTAT | 0.158
62 | AGTTTACG | 0.15
63 | CTACGCAA | -0.135
64 | CCTAGCAG | -0.165
65 | AAACGCAA | 0.13
66 | GTGCTCGA | -0.0887
67 | GTGTGGTA | -0.0681
68 | CGCAATAC | 0.0315
69 | GAGCATCC | -0.0934
70 | AGTGCAAC | 0.0064
71 | GTGGTGCA | -0.138
72 | GCCGATCC | -0.171

Row | Sequence | PBM E-score
73 | GCCAAATA | 0.152
74 | CCATCTGC | 0.111
75 | AACCAGAC | -0.167
76 | GAGATGAC | 0.12
77 | GGTCGATA | -0.035
78 | CGACTCCA | -0.0999
79 | CGGACATA | 0.0987
80 | ATACGGCC | -0.0279
81 | CCCCATCG | -0.0199
82 | TATTAGCA | 0.177
83 | CCGTAGGC | -0.136
84 | GACAGCCC | -0.171
85 | ACATGCAC | 0.0682
86 | CTGATTAC | 0.378
87 | GGATAGTA | 0.224
88 | GTCACCGA | -0.12
89 | CTCGACAC | -0.139
90 | CTATTGGA | 0.137
91 | CTAGGGAA | -0.0434
92 | CTGTATTA | 0.133
93 | AGTCTCAT | -0.0895
94 | CCCAGTTA | -0.143
